Laboratory results published in publication doi:10.1101/2025.06.10.658980, “Structures reveal how the Cas1-2/3 integrase captures, delivers, and integrates foreign DNA into CRISPR loci” (bioRxiv, 2025).
These are yes or no findings as the source states them, for the method shown. For some assays here: In cells and extracts the contact can be indirect. Some entries that bind do so weakly or less than the wild type. For some assays here: Sequences can lack the tags named with a protein.

T1: Cas1 (type I-F, Pseudomonas aeruginosa PA14), StrepII-tagged (Pseudomonas aeruginosa PA14) (UniProt Q02ML7)
T1 sequence: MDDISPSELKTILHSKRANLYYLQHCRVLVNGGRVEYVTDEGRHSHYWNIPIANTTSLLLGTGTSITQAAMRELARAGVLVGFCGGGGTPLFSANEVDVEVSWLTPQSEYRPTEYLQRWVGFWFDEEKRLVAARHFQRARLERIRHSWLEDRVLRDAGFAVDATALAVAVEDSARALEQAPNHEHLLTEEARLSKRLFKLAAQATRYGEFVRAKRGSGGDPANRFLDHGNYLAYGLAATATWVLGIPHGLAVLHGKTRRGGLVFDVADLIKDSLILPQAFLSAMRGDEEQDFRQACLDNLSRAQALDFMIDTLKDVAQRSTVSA

T2: Integration Host Factor subunit alpha (IHFα), Pseudomonas aeruginosa (P. aeruginosa) (UniProt Q51472)
T2 sequence: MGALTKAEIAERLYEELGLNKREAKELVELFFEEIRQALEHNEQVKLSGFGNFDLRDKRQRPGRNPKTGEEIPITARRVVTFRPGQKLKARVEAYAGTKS


How the values were obtained:
[1] = target: T1, Cas1 (type I-F, Pseudomonas aeruginosa PA14), StrepII-tagged (Pseudomonas aeruginosa PA14); assay: pull-down; StrepII-Cas1 and untagged Cas2/3 co-expressed in E. coli BL21(DE3); clarified lysate over StrepTrap HP, eluted with 3 mM desthiobiotin; 50 mM HEPES pH 7.5, 500 mM KCl, 10% glycerol, 1 mM DTT
[2] = target: T1, Cas1 (type I-F, Pseudomonas aeruginosa PA14), StrepII-tagged (Pseudomonas aeruginosa PA14); assay: cryo-EM structure; Cas1-2/3 delivery complex bound to a foreign DNA fragment with a 3' GG PAM, purified by SEC (Superdex 200; 20 mM Tris-HCl pH 7.5, 200 mM monopotassium glutamate, 5 mM EDTA, 1 mM TCEP, 2% glycerol), 3.31 Å; both purified
[3] = target: T1, Cas1 (type I-F, Pseudomonas aeruginosa PA14), StrepII-tagged (Pseudomonas aeruginosa PA14); assay: cryo-EM structure; Cas1-2/3 integration complexes with foreign DNA (with or without PAM), IHF and a 200 bp CRISPR leader-repeat-spacer DNA, purified on Superose 6; five maps of 3.8-4 Å, no atomic model; both purified
[4] = target: T1, Cas1 (type I-F, Pseudomonas aeruginosa PA14), StrepII-tagged (Pseudomonas aeruginosa PA14); assay: cryo-EM structure; Cas1-2/3 capture complex without nucleic acid, 12.8 uM, 3.3 Å; both purified
[5] = target: T2, Integration Host Factor subunit alpha (IHFα), Pseudomonas aeruginosa (P. aeruginosa); assay: co-purification (HisTrap, heparin, SEC); 6xHis-IHFα and StrepII-IHFβ co-expressed in E. coli BL21(DE3); captured on HisTrap HP, tags cleaved, untagged heterodimer purified on Heparin Sepharose and Superdex 75 (25 mM HEPES-NaOH pH 7.5, 200 mM NaCl, 5% glycerol)

binding [5] | Binder | binding [1] | binding [2] | binding [3] | binding [4]
 | Cas2/3 fusion protein (type I-F, Pseudomonas aeruginosa PA14), untagged (enzyme, Two Cas2/3 subunits stand in the Cas1-2/3 heterohexamer, joined through the Cas2 homodimer; also called Cas3; Cas3a; source: E. coli BL21(DE3), co-expressed with StrepII-Cas1 from a single plasmid; in lysate, and purified with Cas1 (StrepTrap HP, Superdex 200)) MNILLVSQCEKRALSETRRILDQFAERRGERTWQTPITQAGLDTLRRLLKKSARRNTAVACHWIRGRDHSELLWIVGDASRFNAQGAVPTNRTCRDILRKEDENDWHSAEDIRLLTVMAALFHDIGKASQAFQAKLRNRGKPMADAYRHEWVSLRLFEAFVGPGSSDEDWLRRLADKRETGDAWLSQLARDDRQSAPPGPFQKSRLPPLAQAVGWLIVSHHRLPNGDHRGSASLARLPAPIQSQWCGARDADAKEKAACWQFPHGLPFASAHWRARTALCAQSMLERPGLLARGPALLHDSYVMHVSRLILMLADHHYSSLPADSRLGDPNFPLHANTDRDSGKLKQRLDEHLLGVALHSRKLAGTLPRLERQLPRLARHKGFTRRVEQPRFRWQDKAYDCAMACREQAMEHGFFGLNLASTGCGKTLANGRILYALADPQRGARFSIALGLRSLTLQTGQAYRERLGLGDDDLAILVGGSAARELFEKQQERLERSGSESAQELLAENSHVHFAGTLEDGPLREWLGRNSAGNRLLQAPILACTIDHLMPASESLRGGHQIAPLLRLMTSDLVLDEVDDFDIDDLPALSRLVHWAGLFGSRVLLSSATLPPALVQGLFEAYRSGREIFQRHRGAPGRATEIRCAWFDEFSSQSSAHGAVTSFSEAHATFVAQRLAKLEQLPPRRQAQLCTVHAAGEARPALCRELAGQMNTWMADLHRCHHTEHQGRRISFGLLRLANIEPLIELAQAILAQGAPEGLHVHLCVYHSRHPLLVRSAIERQLDELLKRSDDDAAALFARPTLAKALQASTERDHLFVVLASPVAEVGRDHDYDWAIVEPSSMRSIIQLAGRIRRHRSGFSGEANLYLLSRNIRSLEGQNPAFQRPGFETPDFPLDSHDLHDLLDPALLARIDASPRIVEPFPLFPRSRLVDLEHRRLRALMLADDPPSSLLGVPLWWQTPASLSGALQTSQPFRAGAKERCYALLPDEDDEERLHFSRYEEGTWSNQDNLLRNLDLTYGPRIQTWGTVNYREELVAMAGREDLDLRQCAMRYGEVRLRENTQGWSYHPYLGFKKYN | binds | binds | binds | binds
binds | Integration Host Factor subunit beta (IHFβ), Pseudomonas aeruginosa (protein, UniProt Q51473 1-94) MTKSELIERIVTHQGQLSAKDVELAIKTMLEQMSQALATGDRIEIRGFGSFSLHYRAPRVGRNPKTGESVRLDGKFVPHFKPGKELRDRVNEPE |  |  |  | 
